Data on 8 compounds can be found in patent US20260248828A1, “Pyropheophorbide Analogues for Therapy and Diagnosis” (RMW Cho Group Limited, priority 2023, published 2026).

Each structure is given as a SMILES string.

This data set relates to SKOV3 ovarian cancer cells. Put plainly: Phototoxicity in SKOV3 cells after 660 nm light activation (AlamarBlue viability). It is filed as cell-based, Human. The conditions noted are these: calculated using phototoxicity IC90 vs dark toxicity IC10, SKOV3 cells. On the procedure:
Samples were stored at 4° C. protected from light.
All data are shown as mean±SD (where appropriate).
To test for phototoxicity, cells incubated with pyropheophorbide a analogues (0-20 μM in DMSO) had culture media replaced after 24 hours (as above) and were then exposed to a 660 nm laser (Invion) or light-emitting diode (LED) panel (Invion) with optical power density at 50 mW/cm^2 for 5 mins (total 15 J/cm^2). Laser and LED exposure induce an equivalent response in relation to phototoxicity. Following activation, cells were cultured for a further 24 hours. Media was then replaced with fresh media containing AlamarBlue, and % viable cells remaining assessed as above. Controls included cells treated with pyropheophorbide a analogues but not activated by laser light; cells without pyropheophorbide a analogue treatment but with laser light; and untreated controls. All measurements were made in quadruplicate.
To evaluate the therapeutic potential of pyropheophorbide a analogues, the therapeutic index (TI) was calculated. TI provides a quantitative measurement to describe relative drug safety, by comparing the drug concentration required for desirable effects versus the concentration resulting in undesirable off-target toxicity. TI was calculated using phototoxicity IC90 vs dark toxicity IC10.
Take `C=Cc1c(C)c2cc3nc(c(C)c4[nH]c(cc5nc(cc1[nH]2)C(C)=C5CC)c(C)c4C(=O)O)[C@@H](CCC(=O)O)[C@@H]3C` [Chlorin e4 disodium, chlorin e4 disodium, reference compound]: the “Therapeutic Index” value is 1.89.

On to `CCC1=C(C)c2cc3[nH]c(cc4nc(c5c6[nH]c(cc1n2)c(C)c6C(=O)C5)[C@@H](CCC(=O)OC)[C@@H]4C)c(C)c3CO` [Comparative Compound 1, pyropheophorbide a 9-hydroxymethyl methyl ester, reference compound], for which the “Therapeutic Index” value is given as 33.84.

In the case of `CCC1=C(C)c2cc3[nH]c(cc4nc(c5c6[nH]c(cc1n2)c(C)c6C(=O)C5)[C@@H](CCC(=O)OC)[C@@H]4C)c(C)c3COC(=O)NCCC[P+](c1ccccc1)(c1ccccc1)c1ccccc1` [Compound 1, pyropheophorbide a methyl ester 9-(N-(3-triphenylphosphoniumpropyl)bromide)carbamate], the “Therapeutic Index” value is 81.26.

Regarding `CCC1=C(C)c2cc3[nH]c(cc4nc(c5c6[nH]c(cc1n2)c(C)c6C(=O)C5)[C@@H](CCC(=O)OC)[C@@H]4C)c(C)c3COC(=O)CCCC[P+](c1ccccc1)(c1ccccc1)c1ccccc1` [Compound 2, pyropheophorbide a methyl ester 9-(oxopentyl)triphenylphosphonium bromide], the “Therapeutic Index” value was 207.50.

With `CCC1=C(C)c2cc3[nH]c(cc4nc(c5c6[nH]c(cc1n2)c(C)c6C(=O)C5)[C@@H](CCC(=O)OC)[C@@H]4C)c(C)c3CN(C)C(=O)CCCC[P+](c1ccccc1)(c1ccccc1)c1ccccc1` [Compound 3, pyropheophorbide a 9-N-(methyl-5-triphenylphosphonium bromidepentanamide) methyl ester], the “Therapeutic Index” value is 2000.00.

With `CCC1=C(C)c2cc3[nH]c(cc4nc(c5c6[nH]c(cc1n2)c(C)c6C(=O)C5)[C@@H](CCC(=O)OC)[C@@H]4C)c(C)c3CNCCC[P+](c1ccccc1)(c1ccccc1)c1ccccc1` [Compound 4, pyropheophorbide a 9-(N-3-triphenylphosphoniumpropyl bromide)aminomethyl methyl ester], the “Therapeutic Index” value is reported as 1060.42.

`CCOC(=O)N(CCC[P+](c1ccccc1)(c1ccccc1)c1ccccc1)Cc1c(C)c2cc3nc(c4c5[nH]c(cc6nc(cc1[nH]2)C(C)=C6CC)c(C)c5C(=O)C4)[C@@H](CCC(=O)OC)[C@@H]3C` [Compound 5, pyropheophorbide a 9-(N-3-triphenylphosphoniumpropyl bromide ethylcarbamate)aminomethyl methyl ester]: the “Therapeutic Index” value is listed as 8161.67.

With `C=Cc1c(C)c2cc3nc(c(CC(=O)N[C@@H](CC(=O)O)C(=O)O)c4[nH]c(cc5nc(cc1[nH]2)C(C)=C5CC)c(C)c4C(=O)O)[C@@H](CCC(=O)O)[C@@H]3C` [Talaporfin sodium, reference compound], the “Therapeutic Index” value is 0.49.
